From US11866437B1, “1,2-dioxo-2,3-dihydro-1H-pyrrolo[2,3-c]quinoline-7-carboxylic acid compounds as CK2 inhibitors” (KING FAISAL UNIVERSITY, priority 2023, dated 2024)

Legend:
Assay type in all cases: cell-based
MDA-MB-231 (breast) = test: In vitro cytotoxic activity MTT assay, MDA-MB-231; conditions: Homo sapiens; MDA-MB-231 cells, exposed for 96 hours; read-out: IC50, 50% inhibition of cell proliferation, MDA-MB-231 (breast)
Protocol: (§1) Compounds 1-16 were screened for their in vitro cytotoxic activity utilizing a 3-(4,5-dimethyl-thiazol-2-yl)-2,5-diphenyltetrazolium bromide (MTT) assay against selected cancer human cell lines consisting of PC3 (prostate), HCT116 (colon), A375 (melanoma), H1299 (lung), MIAPaCa-2 (pancreas), HL60 (leukemia), MCF7 (breast), MDA-MB-231 (breast) (T. Mosmann, J. Immunol. Meth., 1983, 65, 55-63). The cells were cultured at 37° C. in RMPI1640 medium supplemented with 10% fetal bovine serum, 50 IU/mL penicillin, and 50 μg/mL streptomycin in a 5% CO2 incubator. All cells were sub-cultured 3 times/week by trypsinisation. Viable cells were seeded and allowed to adhere for 12 h before a test drug was added in 96-well plates at an initial density of 1.0×10^5 cells/mL. Tumour cell lines were separately exposed to various concentrations of the tested compounds followed by incubation at a temperature of 37° C. during 96 h inside a medium of fresh RMPI 1640. Cells were subsequently incubated at 37° C. using MTT at 0.5 mg/mL during 4 h. After removal of supernatant, formazan crystals were dissolved in isopropanol and the optical density was measured at 570 nm. CX-4945 was used as a positive control.

H1299 (lung) = test: In vitro cytotoxic activity MTT assay, H1299; conditions: Homo sapiens, NCI-H1299; H1299 cells, exposed for 96 hours; read-out: IC50, 50% inhibition of cell proliferation, H1299 (lung)
Protocol: as §1

A375 (melanoma) = test: In vitro cytotoxic activity MTT assay, A375; conditions: Homo sapiens, A-375; A375 cells, exposed for 96 hours; read-out: IC50, 50% inhibition of cell proliferation, A375 (melanoma)
Protocol: as §1

MCF7 (breast) = test: In vitro cytotoxic activity MTT assay, MCF7; conditions: Homo sapiens; MCF7 cells, exposed for 96 hours; read-out: IC50, 50% inhibition of cell proliferation, MCF7 (breast)
Protocol: as §1

PC3 (prostate) = test: In vitro cytotoxic activity MTT assay, PC3; conditions: Homo sapiens, PC-3; PC3 cells, exposed for 96 hours; read-out: IC50, 50% inhibition of cell proliferation, PC3 (prostate)
Protocol: as §1

MIAPaCa-2 (pancreas) = test: In vitro cytotoxic activity MTT assay, MIAPaCa-2; conditions: Homo sapiens, MIA PaCa-2; MIAPaCa-2 cells, exposed for 96 hours; read-out: IC50, 50% inhibition of cell proliferation, MIAPaCa-2 (pancreas)
Protocol: as §1

HCT116 (colon) = test: In vitro cytotoxic activity MTT assay, HCT116; conditions: Homo sapiens, HCT-116; HCT116 cells, exposed for 96 hours; read-out: IC50, 50% inhibition of cell proliferation, HCT116 (colon)
Protocol: as §1

HL60 (leukemia) = test: In vitro cytotoxic activity MTT assay, HL60; conditions: Homo sapiens, HL-60; HL60 cells, exposed for 96 hours; read-out: IC50, 50% inhibition of cell proliferation, HL60 (leukemia)
Protocol: as §1

O=C(O)c1ccc2c(c1)nc(Nc1cccc(Cl)c1)c1ccncc12 [CX-4945, reference compound] was tested, and the IC50 (MDA-MB-231 (breast)) was 6.2 µM, the IC50 (H1299 (lung)) was 2.3 µM and the IC50 (A375 (melanoma)) was 4.1 µM. The IC50 (MCF7 (breast)) was 9.1 µM, the IC50 (PC3 (prostate)) was 2 µM and the IC50 (MIAPaCa-2 (pancreas)) was 1 µM. For the same compound, the IC50 (HCT116 (colon)) was 2.3 µM and the IC50 (HL60 (leukemia)) was 3.7 µM.
